In publication PMC10148843 one finds binding data, which are given here for eleven molecules.

Amino acid sequences for entries named in this document (tags omitted).
UniProt Q6R327: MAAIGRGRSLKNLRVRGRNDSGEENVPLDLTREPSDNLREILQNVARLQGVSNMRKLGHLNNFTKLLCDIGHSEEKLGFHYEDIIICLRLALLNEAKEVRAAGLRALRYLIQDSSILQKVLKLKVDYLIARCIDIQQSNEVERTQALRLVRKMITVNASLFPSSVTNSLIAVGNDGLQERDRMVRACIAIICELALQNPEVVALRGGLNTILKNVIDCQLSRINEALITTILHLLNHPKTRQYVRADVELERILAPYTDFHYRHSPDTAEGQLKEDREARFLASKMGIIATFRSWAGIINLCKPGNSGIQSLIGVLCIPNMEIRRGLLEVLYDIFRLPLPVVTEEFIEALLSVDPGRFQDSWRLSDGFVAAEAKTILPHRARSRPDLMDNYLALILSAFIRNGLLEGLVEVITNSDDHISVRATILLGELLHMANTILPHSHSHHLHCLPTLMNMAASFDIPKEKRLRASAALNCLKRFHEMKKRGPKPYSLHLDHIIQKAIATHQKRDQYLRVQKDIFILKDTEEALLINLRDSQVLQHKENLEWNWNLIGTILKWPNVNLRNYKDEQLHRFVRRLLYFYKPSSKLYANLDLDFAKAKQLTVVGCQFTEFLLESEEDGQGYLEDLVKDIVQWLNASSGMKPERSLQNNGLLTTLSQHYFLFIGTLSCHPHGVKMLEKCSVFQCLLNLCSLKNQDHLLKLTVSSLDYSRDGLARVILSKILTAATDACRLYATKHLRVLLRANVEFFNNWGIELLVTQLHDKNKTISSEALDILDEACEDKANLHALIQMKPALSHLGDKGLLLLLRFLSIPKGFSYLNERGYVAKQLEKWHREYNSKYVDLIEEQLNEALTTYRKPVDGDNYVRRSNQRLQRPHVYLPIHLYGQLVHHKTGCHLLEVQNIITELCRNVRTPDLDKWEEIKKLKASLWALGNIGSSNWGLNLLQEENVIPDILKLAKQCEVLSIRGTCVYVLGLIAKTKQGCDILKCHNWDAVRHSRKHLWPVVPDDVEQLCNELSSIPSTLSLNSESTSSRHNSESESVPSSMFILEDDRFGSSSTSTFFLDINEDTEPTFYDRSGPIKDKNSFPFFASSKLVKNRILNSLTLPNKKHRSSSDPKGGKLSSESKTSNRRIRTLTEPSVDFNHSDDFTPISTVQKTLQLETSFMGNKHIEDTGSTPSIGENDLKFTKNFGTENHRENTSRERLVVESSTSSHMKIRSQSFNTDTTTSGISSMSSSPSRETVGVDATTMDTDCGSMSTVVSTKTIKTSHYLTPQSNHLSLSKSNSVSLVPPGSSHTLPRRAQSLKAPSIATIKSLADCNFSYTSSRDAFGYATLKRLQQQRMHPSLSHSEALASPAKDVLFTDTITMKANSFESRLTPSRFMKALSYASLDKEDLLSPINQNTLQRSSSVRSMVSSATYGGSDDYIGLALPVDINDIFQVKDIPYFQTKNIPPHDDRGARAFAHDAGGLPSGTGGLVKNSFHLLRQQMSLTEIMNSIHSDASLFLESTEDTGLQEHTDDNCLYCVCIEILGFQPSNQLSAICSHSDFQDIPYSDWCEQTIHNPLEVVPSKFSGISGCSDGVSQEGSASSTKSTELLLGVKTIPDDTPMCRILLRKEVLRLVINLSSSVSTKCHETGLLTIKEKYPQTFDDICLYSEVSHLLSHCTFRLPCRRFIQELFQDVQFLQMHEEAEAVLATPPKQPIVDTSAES
UniProt P46821: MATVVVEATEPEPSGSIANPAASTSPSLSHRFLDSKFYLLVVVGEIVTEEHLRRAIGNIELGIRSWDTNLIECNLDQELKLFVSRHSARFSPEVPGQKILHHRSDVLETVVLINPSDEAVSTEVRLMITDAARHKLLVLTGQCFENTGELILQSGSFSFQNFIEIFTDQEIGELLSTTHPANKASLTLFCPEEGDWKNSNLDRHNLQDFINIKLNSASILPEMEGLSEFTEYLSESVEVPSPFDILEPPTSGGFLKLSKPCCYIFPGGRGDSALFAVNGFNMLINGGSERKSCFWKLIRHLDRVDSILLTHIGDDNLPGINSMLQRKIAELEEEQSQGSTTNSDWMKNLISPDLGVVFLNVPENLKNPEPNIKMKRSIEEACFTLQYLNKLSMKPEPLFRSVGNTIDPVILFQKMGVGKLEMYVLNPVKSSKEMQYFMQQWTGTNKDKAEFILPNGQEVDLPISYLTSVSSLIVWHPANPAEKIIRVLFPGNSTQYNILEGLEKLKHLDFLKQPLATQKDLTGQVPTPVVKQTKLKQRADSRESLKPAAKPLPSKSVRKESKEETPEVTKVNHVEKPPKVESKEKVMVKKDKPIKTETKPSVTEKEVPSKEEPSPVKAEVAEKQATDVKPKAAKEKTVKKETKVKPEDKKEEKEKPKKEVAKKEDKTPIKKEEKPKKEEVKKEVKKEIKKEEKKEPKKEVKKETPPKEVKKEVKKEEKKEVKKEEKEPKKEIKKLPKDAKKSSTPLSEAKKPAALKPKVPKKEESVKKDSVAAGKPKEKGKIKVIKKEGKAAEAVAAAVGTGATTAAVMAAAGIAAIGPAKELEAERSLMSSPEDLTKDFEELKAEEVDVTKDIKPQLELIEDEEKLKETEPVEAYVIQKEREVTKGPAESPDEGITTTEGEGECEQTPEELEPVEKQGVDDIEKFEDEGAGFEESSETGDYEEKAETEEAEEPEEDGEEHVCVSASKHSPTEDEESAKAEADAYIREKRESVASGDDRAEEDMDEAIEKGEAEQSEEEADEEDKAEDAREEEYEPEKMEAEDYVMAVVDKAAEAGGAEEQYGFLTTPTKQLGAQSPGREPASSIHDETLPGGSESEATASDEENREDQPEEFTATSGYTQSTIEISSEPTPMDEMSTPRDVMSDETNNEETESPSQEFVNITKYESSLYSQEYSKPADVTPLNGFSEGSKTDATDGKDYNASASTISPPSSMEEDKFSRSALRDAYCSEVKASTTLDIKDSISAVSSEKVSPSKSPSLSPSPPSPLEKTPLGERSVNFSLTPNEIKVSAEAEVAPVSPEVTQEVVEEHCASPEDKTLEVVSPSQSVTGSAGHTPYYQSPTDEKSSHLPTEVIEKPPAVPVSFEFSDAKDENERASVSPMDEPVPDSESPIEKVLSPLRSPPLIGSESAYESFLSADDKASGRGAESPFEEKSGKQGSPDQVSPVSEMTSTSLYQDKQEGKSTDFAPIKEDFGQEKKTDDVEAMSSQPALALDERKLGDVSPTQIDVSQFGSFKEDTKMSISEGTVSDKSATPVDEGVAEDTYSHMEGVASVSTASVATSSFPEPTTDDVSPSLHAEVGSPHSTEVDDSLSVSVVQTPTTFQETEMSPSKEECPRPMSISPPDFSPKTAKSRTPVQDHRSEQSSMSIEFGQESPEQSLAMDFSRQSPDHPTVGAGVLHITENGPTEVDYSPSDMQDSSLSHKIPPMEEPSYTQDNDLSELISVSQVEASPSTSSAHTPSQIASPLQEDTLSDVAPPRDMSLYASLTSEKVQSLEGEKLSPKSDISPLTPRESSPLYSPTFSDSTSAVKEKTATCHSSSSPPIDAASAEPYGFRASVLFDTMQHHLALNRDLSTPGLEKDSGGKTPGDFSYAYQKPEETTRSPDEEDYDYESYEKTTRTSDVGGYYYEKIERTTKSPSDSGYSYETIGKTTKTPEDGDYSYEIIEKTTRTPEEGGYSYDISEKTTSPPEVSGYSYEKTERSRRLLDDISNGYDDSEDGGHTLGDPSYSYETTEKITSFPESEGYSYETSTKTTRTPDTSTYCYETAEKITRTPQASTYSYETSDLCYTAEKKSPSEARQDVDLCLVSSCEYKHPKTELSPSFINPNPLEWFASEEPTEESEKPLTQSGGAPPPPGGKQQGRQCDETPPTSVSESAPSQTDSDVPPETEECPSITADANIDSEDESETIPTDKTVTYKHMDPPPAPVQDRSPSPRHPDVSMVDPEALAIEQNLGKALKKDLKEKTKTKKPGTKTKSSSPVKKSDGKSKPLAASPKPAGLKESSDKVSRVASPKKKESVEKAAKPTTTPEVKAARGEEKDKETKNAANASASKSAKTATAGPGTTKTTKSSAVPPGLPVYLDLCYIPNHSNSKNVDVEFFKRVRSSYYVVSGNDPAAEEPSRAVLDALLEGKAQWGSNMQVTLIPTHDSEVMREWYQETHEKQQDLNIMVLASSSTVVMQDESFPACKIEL
UniProt P35579: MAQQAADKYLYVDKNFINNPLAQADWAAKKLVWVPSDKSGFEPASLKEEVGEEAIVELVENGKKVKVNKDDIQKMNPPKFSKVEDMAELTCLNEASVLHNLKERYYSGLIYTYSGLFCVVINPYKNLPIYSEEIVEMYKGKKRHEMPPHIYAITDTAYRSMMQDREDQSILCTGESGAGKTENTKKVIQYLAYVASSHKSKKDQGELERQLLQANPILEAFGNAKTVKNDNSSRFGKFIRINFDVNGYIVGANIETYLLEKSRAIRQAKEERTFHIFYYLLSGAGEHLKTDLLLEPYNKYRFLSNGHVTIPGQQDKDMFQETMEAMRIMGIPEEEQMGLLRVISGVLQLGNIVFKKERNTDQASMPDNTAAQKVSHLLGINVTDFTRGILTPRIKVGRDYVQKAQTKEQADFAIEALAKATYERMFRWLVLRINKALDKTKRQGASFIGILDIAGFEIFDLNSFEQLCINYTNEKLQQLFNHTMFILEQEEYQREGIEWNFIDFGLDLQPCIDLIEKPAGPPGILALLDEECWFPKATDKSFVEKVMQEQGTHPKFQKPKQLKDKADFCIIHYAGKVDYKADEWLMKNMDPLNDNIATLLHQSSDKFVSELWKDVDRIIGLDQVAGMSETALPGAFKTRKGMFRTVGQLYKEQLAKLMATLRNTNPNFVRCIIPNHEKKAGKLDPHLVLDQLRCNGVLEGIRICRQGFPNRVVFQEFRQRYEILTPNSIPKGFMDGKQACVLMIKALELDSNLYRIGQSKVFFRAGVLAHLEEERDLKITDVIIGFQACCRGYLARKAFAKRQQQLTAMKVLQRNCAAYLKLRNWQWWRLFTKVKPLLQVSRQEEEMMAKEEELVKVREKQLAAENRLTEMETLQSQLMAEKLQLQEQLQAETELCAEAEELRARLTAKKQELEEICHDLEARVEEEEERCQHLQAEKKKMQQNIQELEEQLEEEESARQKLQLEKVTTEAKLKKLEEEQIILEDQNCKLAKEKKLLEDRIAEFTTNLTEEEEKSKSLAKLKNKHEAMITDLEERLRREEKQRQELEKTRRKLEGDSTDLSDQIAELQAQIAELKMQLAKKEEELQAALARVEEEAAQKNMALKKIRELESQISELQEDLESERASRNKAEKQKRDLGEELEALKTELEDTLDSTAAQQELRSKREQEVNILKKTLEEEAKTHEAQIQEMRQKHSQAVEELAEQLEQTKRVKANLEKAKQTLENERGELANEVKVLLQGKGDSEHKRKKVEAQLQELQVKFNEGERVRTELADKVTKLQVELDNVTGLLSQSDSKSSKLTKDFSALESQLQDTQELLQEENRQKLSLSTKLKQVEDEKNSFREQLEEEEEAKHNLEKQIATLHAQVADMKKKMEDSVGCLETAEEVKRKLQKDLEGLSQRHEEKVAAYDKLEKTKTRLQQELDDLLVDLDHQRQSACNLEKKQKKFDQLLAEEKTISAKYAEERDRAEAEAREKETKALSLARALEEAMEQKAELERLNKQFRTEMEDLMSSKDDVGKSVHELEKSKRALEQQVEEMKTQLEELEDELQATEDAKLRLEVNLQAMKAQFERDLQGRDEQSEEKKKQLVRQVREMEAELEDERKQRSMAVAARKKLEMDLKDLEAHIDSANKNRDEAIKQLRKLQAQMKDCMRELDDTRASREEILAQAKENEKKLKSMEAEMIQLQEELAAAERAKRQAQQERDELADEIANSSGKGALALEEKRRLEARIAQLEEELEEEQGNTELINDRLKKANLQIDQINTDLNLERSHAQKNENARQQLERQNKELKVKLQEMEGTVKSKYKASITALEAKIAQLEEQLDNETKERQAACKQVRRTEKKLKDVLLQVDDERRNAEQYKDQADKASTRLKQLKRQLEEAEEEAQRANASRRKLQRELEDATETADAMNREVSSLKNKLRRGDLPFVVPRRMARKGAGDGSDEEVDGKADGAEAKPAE
UniProt P68366: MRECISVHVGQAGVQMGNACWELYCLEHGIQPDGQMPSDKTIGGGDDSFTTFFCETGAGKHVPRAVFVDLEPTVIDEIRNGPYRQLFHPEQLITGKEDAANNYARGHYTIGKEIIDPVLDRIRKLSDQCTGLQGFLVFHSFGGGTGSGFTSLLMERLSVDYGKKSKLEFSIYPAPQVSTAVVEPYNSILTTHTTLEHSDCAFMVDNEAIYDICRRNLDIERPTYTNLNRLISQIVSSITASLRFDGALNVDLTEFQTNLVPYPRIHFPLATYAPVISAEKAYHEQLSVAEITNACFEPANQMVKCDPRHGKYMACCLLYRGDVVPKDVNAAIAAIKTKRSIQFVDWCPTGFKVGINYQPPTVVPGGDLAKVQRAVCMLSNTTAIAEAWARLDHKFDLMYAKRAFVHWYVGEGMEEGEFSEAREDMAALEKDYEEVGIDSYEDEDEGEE

The target in assay [1] is RICTOR (human (endogenous in U87MG, DBTRG-05MG, H4, SW1088)) (UniProt Q6R327). In words: affinity purification with mass spectrometry; anti-RICTOR IP from U87MG lysates, control against GSN knockdown (FANA antisense oligonucleotides); on-bead digestion, label-free quantification.
Assay [2] has the same target. Briefly: affinity purification with mass spectrometry; anti-RICTOR antibody and protein A magnetic beads, endogenous proteins of U87MG lysate (2% CHAPS, 150 mM NaCl), washes with 300 mM NaCl; normal against siRICTOR-treated cells (QUICK), SDS-PAGE and in-gel digestion, label-free quantification.
The target is the same in assay [3]. Briefly: affinity purification with mass spectrometry; anti-RICTOR IP from U87MG lysate compared with H4 lysate, label-free quantification.
Assay [4] has the same target. Briefly: affinity purification with mass spectrometry; anti-RICTOR IP from U87MG lysates; cells serum-starved, serum-activated or treated with 2.0 µM AZD8055; GELFREE fractionation, eFASP in-solution digestion, label-free quantification.
The target is the same in assay [5]. In words: affinity purification with mass spectrometry; anti-RICTOR IP from lysate of U87MG cells treated with 2.0 µM AZD8055 (24 h); GELFREE fractionation, eFASP digestion.

No constants are given. Whether binding was seen depends on the method and setting. In cells and extracts the contact can be indirect. A yes stands for co-enrichment or nearness to the bait. Other partners may have been found. For some assays here: No binding means not detected with the bait.

In the case of FLNA (from UniProt P21333 1-2647), the binding entry in assay [1] and in assay [2] was “binds” each time.

With FLNC (from UniProt Q14315 1-2725), in assay [3], the binding entry was “binds”.

Consider SVIL (from UniProt O95425 1-2214), for which the binding result in assay [3] is listed as “binds”.

Regarding “microtubule-associated protein 1B (MAP1B) (from UniProt P46821 1-2468)”, the binding entry in assay [1] and in assay [4] was “binds” throughout.

In the case of “myosin-9 (MYH9) (from UniProt P35579 1-1960)”, the binding result in assay [1], in assay [2], in assay [3] and in assay [4] was “binds” throughout.

Consider gelsolin (GSN) (from UniProt P06396), for which the binding result in assay [1] is given as “binds”; in assay [5] it was “no binding (only cells treated with 2.0 µM AZD8055)”; in assay [3] it was “binds”; in assay [4], “binds”.

In the case of LIMA1 (from UniProt Q9UHB6 1-759), in assay [3], the binding entry was “binds”.

“tubulin alpha-4A chain (TUBA4A) (from UniProt P68366 1-448)”: the binding entry in assay [1] and in assay [3] was “binds” throughout.

B1: KIF3B (protein, UniProt O15066 1-747)
chain: MSKLKSSESVRVVVRCRPMNGKEKAASYDKVVDVDVKLGQVSVKNPKGTAHEMPKTFTFDAVYDWNAKQFELYDETFRPLVDSVLQGFNGTIFAYGQTGTGKTYTMEGIRGDPEKRGVIPNSFDHIFTHISRSQNQQYLVRASYLEIYQEEIRDLLSKDQTKRLELKERPDTGVYVKDLSSFVTKSVKEIEHVMNVGNQNRSVGATNMNEHSSRSHAIFVITIECSEVGLDGENHIRVGKLNLVDLAGSERQAKTGAQGERLKEATKINLSLSALGNVISALVDGKSTHIPYRDSKLTRLLQDSLGGNAKTVMVANVGPASYNVEETLTTLRYANRAKNIKNKPRVNEDPKDALLREFQEEIARLKAQLEKRSIGRRKRREKRREGGGSGGGGEEEEEEGEEGEEEGDDKDDYWREQQEKLEIEKRAIVEDHSLVAEEKMRLLKEKEKKMEDLRREKDAAEMLGAKIKAMESKLLVGGKNIVDHTNEQQKILEQKRQEIAEQKRREREIQQQMESRDEETLELKETYSSLQQEVDIKTKKLKKLFSKLQAVKAEIHDLQEEHIKERQELEQTQNELTRELKLKHLIIENFIPLEEKSKIMNRAFFDEEEDHWKLHPITRLENQQMMKRPVSAVGYKRPLSQHARMSMMIRPEARYRAENIVLLELDMPSRTTRDYEGPAIAPKVQAALDAALQDEDEIQVDASSFESTANKKSKARPKSGRKSGSSSSSSGTPASQLYPQSRGLVPK
Take B1: the binding entry in assay [3] is reported as “binds”.

B2: ATP-binding cassette subfamily F member 2 (ABCF2) (protein, UniProt Q9UG63 1-623)
chain: MPSDLAKKKAAKKKEAAKARQRPRKGHEENGDVVTEPQVAEKNEANGRETTEVDLLTKELEDFEMKKAAARAVTGVLASHPNSTDVHIINLSLTFHGQELLSDTKLELNSGRRYGLIGLNGIGKSMLLSAIGKREVPIPEHIDIYHLTREMPPSDKTPLHCVMEVDTERAMLEKEAERLAHEDAECEKLMELYERLEELDADKAEMRASRILHGLGFTPAMQRKKLKDFSGGWRMRVALARALFIRPFMLLLDEPTNHLDLDACVWLEEELKTFKRILVLVSHSQDFLNGVCTNIIHMHNKKLKYYTGNYDQYVKTRLELEENQMKRFHWEQDQIAHMKNYIARFGHGSAKLARQAQSKEKTLQKMMASGLTERVVSDKTLSFYFPPCGKIPPPVIMVQNVSFKYTKDGPCIYNNLEFGIDLDTRVALVGPNGAGKSTLLKLLTGELLPTDGMIRKHSHVKIGRYHQHLQEQLDLDLSPLEYMMKCYPEIKEKEEMRKIIGRYGLTGKQQVSPIRNLSDGQKCRVCLAWLAWQNPHMLFLDEPTNHLDIETIDALADAINEFEGGMMLVSHDFRLIQQVAQEIWVCEKQTITKWPGDILAYKEHLKSKLVDEEPQLTKRTHNV
Consider B2, for which the binding result in assay [5] is listed as “no binding (only cells treated with 2.0 µM AZD8055)”; in assay [4], “binds”.

B3: unconventional myosin-Id (MYO1D) (protein, UniProt O94832 1-1006)
chain: MAEQESLEFGKADFVLMDTVSMPEFMANLRLRFEKGRIYTFIGEVVVSVNPYKLLNIYGRDTIEQYKGRELYERPPHLFAIADAAYKAMKRRSKDTCIVISGESGAGKTEASKYIMQYIAAITNPSQRAEVERVKNMLLKSNCVLEAFGNAKTNRNDNSSRFGKYMDINFDFKGDPIGGHINNYLLEKSRVIVQQPGERSFHSFYQLLQGGSEQMLRSLHLQKSLSSYNYIHVGAQLKSSINDAAEFRVVADAMKVIGFKPEEIQTVYKILAAILHLGNLKFVVDGDTPLIENGKVVSIIAELLSTKTDMVEKALLYRTVATGRDIIDKQHTEQEASYGRDAFAKAIYERLFCWIVTRINDIIEVKNYDTTIHGKNTVIGVLDIYGFEIFDNNSFEQFCINYCNEKLQQLFIQLVLKQEQEEYQREGIPWKHIDYFNNQIIVDLVEQQHKGIIAILDDACMNVGKVTDEMFLEALNSKLGKHAHFSSRKLCASDKILEFDRDFRIRHYAGDVVYSVIGFIDKNKDTLFQDFKRLMYNSSNPVLKNMWPEGKLSITEVTKRPLTAATLFKNSMIALVDNLASKEPYYVRCIKPNDKKSPQIFDDERCRHQVEYLGLLENVRVRRAGFAFRQTYEKFLHRYKMISEFTWPNHDLPSDKEAVKKLIERCGFQDDVAYGKTKIFIRTPRTLFTLEELRAQMLIRIVLFLQKVWRGTLARMRYKRTKAALTIIRYYRRYKVKSYIHEVARRFHGVKTMRDYGKHVKWPSPPKVLRRFEEALQTIFNRWRASQLIKSIPASDLPQVRAKVAAVEMLKGQRADLGLQRAWEGNYLASKPDTPQTSGTFVPVANELKRKDKYMNVLFSCHVRKVNRFSKVEDRAIFVTDRHLYKMDPTKQYKVMKTIPLYNLTGLSVSNGKDQLVVFHTKDNKDLIVCLFSKQPTHESRIGELVGVLVNHFKSEKRHLQVNVTNPVQCSLHGKKCTVSVETRLNQPQPDFTKNRSGFILSVPGN
Take B3: the binding result in assay [1], in assay [3] and in assay [4] was “binds” throughout.
